This passage reports binding results from article PMC4395418, “The Aspartate-Less Receiver (ALR) Domains: Distribution, Structure and Function” (PLoS Pathogens, 2015).

These are yes or no findings as the source states them, for the method shown.

Experiment [1] deals with RitR ALR (REC) receiver domain, wild-type (Streptococcus pneumoniae strain R800). Briefly: crystal structure; RitRALR, hanging drop, space group P1, 1.6 A; both purified.
The target is the same in experiment [2]. Put plainly: SEC; purified 15N-labelled RitRALR (ALR domain only) wild-type and Ala mutants; oligomeric state; both purified.
Experiment [3] shares this target. Briefly: NMR (1H-15N HSQC and three-dimensional spectra compared between wild type and mutants); RitRALR variants in 40 mM 2H-Tris-HCl pH 7.6, 300 mM NaCl, 10% D2O, 0.02% NaN3; 600 MHz, 25 C; both purified.
Experiment [4] deals with T1, Repressor of Iron Transport Regulator (RitR), full-length, wild-type (Streptococcus pneumoniae strain R800), A0ACD7.
T1 chain: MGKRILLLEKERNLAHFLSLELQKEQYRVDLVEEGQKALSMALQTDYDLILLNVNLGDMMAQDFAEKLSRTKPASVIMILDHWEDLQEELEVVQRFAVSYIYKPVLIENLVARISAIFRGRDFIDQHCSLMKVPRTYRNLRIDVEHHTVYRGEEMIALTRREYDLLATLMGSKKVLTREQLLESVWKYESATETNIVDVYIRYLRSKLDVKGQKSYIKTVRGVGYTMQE
Briefly: SEC; RitRFL wild-type and mutants; Agilent 1220 HPLC, BioBasic SEC-300A column, 50 mM TRIS pH 8.0, 150 mM NaCl, 10 mM DTT; proteins pre-treated with 10 mM DTT; 0.5 ml/min, ambient temperature; both purified. The following applies: remark: other sources report otherwise.

As for “RitR ALR (REC) receiver domain, wild-type (from UniProt A0ACD7PPZ9 1-124) (domain or fragment)”, the binding entry in experiment [1], in experiment [2] and in experiment [3] was “no binding” each time.

B1: Repressor of Iron Transport Regulator (RitR), full-length, wild-type, A0ACD7PPZ9 1-229 (protein)
chain: T1 chain
In the case of B1, in experiment [4], the binding entry is given as “no binding”.
